In publication PMC10616111 one finds binding data, which are given here for one substance.

The chains behind the UniProt entries cited, without tags or fusion partners. Where a name states a change or a piece, a line headed by the entry shows the natural chain unless it says otherwise.
UniProt P52895: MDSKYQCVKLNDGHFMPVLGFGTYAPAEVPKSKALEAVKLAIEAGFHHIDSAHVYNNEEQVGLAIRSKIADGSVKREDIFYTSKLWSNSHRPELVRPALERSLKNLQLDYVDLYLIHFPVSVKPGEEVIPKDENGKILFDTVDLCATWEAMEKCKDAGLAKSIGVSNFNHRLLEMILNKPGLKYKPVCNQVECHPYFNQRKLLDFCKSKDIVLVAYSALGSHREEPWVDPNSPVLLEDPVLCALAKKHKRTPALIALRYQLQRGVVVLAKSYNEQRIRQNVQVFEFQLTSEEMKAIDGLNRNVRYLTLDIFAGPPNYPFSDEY
UniProt P46937: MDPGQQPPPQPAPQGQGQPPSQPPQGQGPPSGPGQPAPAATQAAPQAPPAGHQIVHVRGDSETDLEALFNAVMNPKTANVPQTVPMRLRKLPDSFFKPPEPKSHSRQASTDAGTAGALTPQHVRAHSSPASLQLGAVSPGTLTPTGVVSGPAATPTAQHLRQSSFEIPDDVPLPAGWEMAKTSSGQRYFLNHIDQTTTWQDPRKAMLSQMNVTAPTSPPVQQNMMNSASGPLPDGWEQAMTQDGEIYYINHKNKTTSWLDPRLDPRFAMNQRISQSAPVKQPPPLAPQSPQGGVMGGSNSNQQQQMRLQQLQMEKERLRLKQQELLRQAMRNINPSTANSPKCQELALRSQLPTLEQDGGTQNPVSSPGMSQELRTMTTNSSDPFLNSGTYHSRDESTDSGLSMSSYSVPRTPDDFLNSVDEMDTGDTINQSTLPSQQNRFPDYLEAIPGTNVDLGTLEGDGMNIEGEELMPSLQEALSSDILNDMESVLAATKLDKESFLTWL

These are yes or no findings as the source states them, for the method shown. Binding seen in cells or lysates may run through a third protein. Binding calls can cover weak binding; strength is not graded here.

The assay deals with pep-AKR1C2 (163-aa microprotein encoded by lncAKR1C2), Flag-labelled (human) (UniProt P52895). Nature of the assay: co-IP; anti-Flag immunoprecipitation from cell lysate 48 h or 72 h after treatment; lysis buffer 150 mM KCl, 25 mM Tris-HCl pH 7.4, 5 mM EDTA, 0.5% Triton X-100, 5 mM DTT; antibody overnight at 4 °C, beads 2-4 h at RT, five washes; western blot.

For the substance “YAP (Yes-associated protein) (from UniProt P46937 1-504)”, the binding result is given as “binds”.
